Assay results as given in patent publication US20230416361A1.
These are yes or no findings as the source states them, for the method shown.

These binders were tested against soluble cynomolgus macaque CD200RLa (cynomolgus macaque) (assay: SPR, captured antibody, soluble receptor injected, 37 C).

| binding | Binder |
| --- | --- |
| no binding (tested: 2 µM) | anti-CD200R antibody clone 21.3.1 (mIgG1k isotype) (antibody, V domains shown) VH: QVQLQQPGSELVRPGASVKLSCKASGHTFTSYWMHWVKQRPGQGLEWIGNIYPGSGSINYDEKFKSKAKLTVDTSSRTAYMQLSSLTSEDSAVYYCLTMTGTSWGQGTLVTVSA VL: DVQMIQSPSSLSASLGDIVTMTCQASQGTPINLHWFQQKPGKAPKLLISGASNLEDGVPSRFSGSRYGTAFTLTISSLEDEDMATYFCLQFTYIPWTFGGGTKLEIKR |
| no binding (tested: 2 µM) | anti-CD200R antibody clone 26.1.2 (mIgG1k isotype) (antibody, V domains shown) VH: EVQLQQSGPELVKPGASVKMSCKASGYTFTSYVMHWVKQKPGQGLEWIGYIHPYNDDIKHNEKFKDKATLTSAKSSSTVYMELSSLTSEDSAVYYCAREEYYGSRFAYWGQGTLVTVSA VL: DIVLTQSPASLAVSLGQRATISCRASKSVRTSGYSYLHWYQQKPGQPPKLLIYLASNLESGVPARFSGSGSGTDFTLNIHPVEEEDAATYYCQYSGELPFTFGGGTKLEIKR |

More lines, now with the values behind:

| Binder | binding |
| --- | --- |
| anti-CD200R antibody clone 3.10.2 (mIgG1k isotype) (antibody, V domains shown) VH: QVQLQQPGSELVRPGASVKLSCKASGYTFTSYWMHWVKQRPGQGLEWIGNIFPGSDTTNYDEKFKSKAIMTVDISSSTVYMHLSSLTSEDSAVYYCITYTGAYWGQGTLVTVSA VL: DVQMIQSPSSLSASMGDIVTMTCQASQGTNINLHWFQQKPGKAPKLLISGGSNLEDGVPSRFSGSRYGTDFTLTISSLEDEDMATYFCLQFTYLPWTFGGGTKLDIKR | no binding (tested: 2 µM) |
| anti-CD200R antibody clone 7.12.2 (mIgG1k isotype) (antibody, V domains shown) VH: QVQLQQPGSELVRPGASVKLSCKASGYTFTSYWMHWVKQRPGQGLEWIGNIYPGSGTTNYDEKFKSKATLTVDTSSSTAYMQISSLTSEDSAVYYCTTGTSTYWGQGTLVTVSA VL: DVQMIQSPSSLSASLGDIVTMTCQASQGTSINLNWFQQKPGKAPKLLIYGAVNLEDGVPSRFSGSRYGTDFTLTVSSLEDEDMATYFCLQHTYLPWTFGGGTKLEIKR | no binding (tested: 2 µM) |
